PubChem BioAssay AID493246 | Drosophila RNAi Screening Center | 2011
The screen tested about 21,000 reagents; this is an unselected part of those with a known target gene and a result. Of all reagents, 429 (2%) got an active call. 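Values are raw and not normalised between plates; calls rest on per-plate z-scores that were not deposited.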 Reagent sequences are not shown. Not given: the amount of reagent, the time to read-out.

- Aim: 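Genes fly cells need to grow and stay alive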 (primary screen)
- Cell system: Drosophila Kc and S2R+ cells
- Reagent: long dsRNA against Drosophila genes
- Measured: 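Cell number per well after knock-down, printed as raw plate values; calls were based on per-plate z-scores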
- Scale: Kc cell number and S2R+ cell number: higher = more cells remaining
- Rule for the call: 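Active when the per-plate z-score of cell number is 3 or more in the direction of fewer cells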

trx (trithorax) [DRSC17089] gave Kc cell number, rep 1 = 1.43e6; Kc cell number, rep 2 = 1.52e6; S2R+ cell number, rep 1 = 9.44e5; S2R+ cell number, rep 2 = 1.01e6; inactive.
With knock-down of GNBP2 (Gram-negative bacteria binding protein 2) [DRSC10404], the record shows Kc cell number, rep 1 = 1.46e6; Kc cell number, rep 2 = 1.50e6; S2R+ cell number, rep 1 = 1.36e6; S2R+ cell number, rep 2 = 1.39e6; inactive.
CG33158 [DRSC09709] scored Kc cell number, rep 1 = 1.55e6; Kc cell number, rep 2 = 1.79e6; S2R+ cell number, rep 1 = 1.41e6; S2R+ cell number, rep 2 = 1.47e6; inactive.
Depletion of CG33158 [DRSC10438] came out at: Kc cell number, rep 1 = 1.35e6; Kc cell number, rep 2 = 1.38e6; S2R+ cell number, rep 1 = 1.23e6; S2R+ cell number, rep 2 = 1.35e6; inactive.
For CG32856 [DRSC13124], the entry reads Kc cell number, rep 1 = 1.37e6; Kc cell number, rep 2 = 1.54e6; S2R+ cell number, rep 1 = 1.05e6; S2R+ cell number, rep 2 = 1.19e6; inactive.
Knock-down of Ugt302C1 (UDP-glycosyltransferase family 302 member C1) [DRSC15353] resulted in: Kc cell number, rep 1 = 1.56e6; Kc cell number, rep 2 = 1.64e6; S2R+ cell number, rep 1 = 1.35e6; S2R+ cell number, rep 2 = 1.48e6; inactive.

Copied from the entries so far for reference:
trx (trithorax) [DRSC17089]: Kc cell number, rep 1 = 1.43e6; Kc cell number, rep 2 = 1.52e6; S2R+ cell number, rep 1 = 9.44e5; S2R+ cell number, rep 2 = 1.01e6; outcome = inactive
GNBP2 (Gram-negative bacteria binding protein 2) [DRSC10404]: Kc cell number, rep 1 = 1.46e6; Kc cell number, rep 2 = 1.50e6; S2R+ cell number, rep 1 = 1.36e6; S2R+ cell number, rep 2 = 1.39e6; outcome = inactive

More entries follow:
After knock-down of GstZ2 (Glutathione S transferase Z2) [DRSC16479], the record shows Kc cell number, rep 1 = 1.51e6; Kc cell number, rep 2 = 1.53e6; S2R+ cell number, rep 1 = 1.21e6; S2R+ cell number, rep 2 = 1.30e6; inactive.
Against dac (dachshund) [DRSC03518], the entry reads Kc cell number, rep 1 = 1.73e6; Kc cell number, rep 2 = 1.70e6; S2R+ cell number, rep 1 = 1.32e6; S2R+ cell number, rep 2 = 1.57e6; inactive.
Against CG30275 [DRSC04163] the deposit lists Kc cell number, rep 1 = 1.59e6; Kc cell number, rep 2 = 1.70e6; S2R+ cell number, rep 1 = 1.36e6; S2R+ cell number, rep 2 = 1.45e6; inactive.
With knock-down of Su(var)3-3 (Suppressor of variegation 3-3) [DRSC10250], the screen gave Kc cell number, rep 1 = 1.44e6; Kc cell number, rep 2 = 1.45e6; S2R+ cell number, rep 1 = 1.18e6; S2R+ cell number, rep 2 = 1.23e6; inactive.
For CG14960 [DRSC08419] the deposit lists Kc cell number, rep 1 = 1.53e6; Kc cell number, rep 2 = 1.31e6; S2R+ cell number, rep 1 = 1.08e6; S2R+ cell number, rep 2 = 1.43e6; inactive.
After knock-down of Cln3 [DRSC10520], the screen gave Kc cell number, rep 1 = 1.39e6; Kc cell number, rep 2 = 1.38e6; S2R+ cell number, rep 1 = 1.23e6; S2R+ cell number, rep 2 = 1.33e6; inactive.
